Values quoted from earlier work as cited in patent publication US20240158750A1, “STROMA-FREE NK CELL DIFFERENTIATION FROM HUMAN PLURIPOTENT STEM CELLS” (The Children's Medical Center Corporation, priority 2021, published 2024).

System: polycomb repressive complex 2 (PRC2)
Conditions: PRC2, at 10 μM; cited from earlier work

## O=C(O)c1ccc2c(c1)nc(NC(=O)c1ccccc1)n2CCCc1ccccc1 [BRD9539]
  activity remaining: 43%
